PubChem BioAssay AID743121 | NCATS | 2013
The whole screen tested about 26,000 reagents; below is an unselected part. 167 of them (0.63%) count as active. 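Calls are per gene from RSA p-values that are not deposited; an individual active-marked siRNA can sensitise only weakly.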 The numbers tell different reagents against one gene apart.

Test: 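Partners whose loss is lethal together with topoisomerase I blockade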 (primary screen)
System: MDA-MB-231 cells, a human breast cancer line
Reagent: single siRNA against human genes, 20 nM siRNA (0.8 pmol per well)
Timing: 120 h (drug added 48 h after transfection, read 72 h later)
Treatment: camptothecin 20 nM (about EC30) for 72 h; vehicle 0.1% DMSO in parallel plates
Measurement: 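CellTiter-Glo ATP signal, scaled to control siRNA as percent viability; sensitisation given as log2 of untreated divided by camptothecin-treated viability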
Reading the numbers: log2 vehicle/camptothecin viability: higher = stronger sensitisation to camptothecin; viability with camptothecin and viability without drug: higher = more viable cells
Call rule: 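Each gene scored by redundant siRNA activity (RSA) over its individual siRNA ratios; a gene is called active at p < 0.001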

target,reagent,log2 vehicle/camptothecin viability,viability with camptothecin (% of control),viability without drug (% of control),Outcome
MYO3A (myosin IIIA),1,-0.525,145,100,inactive
MYO3A (myosin IIIA),2,0.0856,55.5,58.9,inactive
MYO3A (myosin IIIA),3,0.0593,85.3,88.9,inactive
MYO3A (myosin IIIA),4,-0.198,55,48,inactive
TLR8 (toll like receptor 8),1,0.146,76.6,84.8,inactive
TLR8 (toll like receptor 8),2,0.625,73.8,114,inactive
TLR8 (toll like receptor 8),3,-0.452,51.3,37.5,inactive
TLR8 (toll like receptor 8),4,0.186,51.4,58.4,inactive
CARD11 (caspase recruitment domain family member 11),1,-0.0123,74.9,74.3,inactive
CARD11 (caspase recruitment domain family member 11),2,-0.222,82.7,70.9,inactive
CARD11 (caspase recruitment domain family member 11),3,-0.368,100,77.8,inactive
CCT8 (chaperonin containing TCP1 subunit 8),1,-0.54,95.4,65.6,inactive
CCT8 (chaperonin containing TCP1 subunit 8),2,-0.466,43.1,31.2,inactive
CCT8 (chaperonin containing TCP1 subunit 8),3,-0.438,60.6,44.7,inactive
CCT8 (chaperonin containing TCP1 subunit 8),4,-0.476,76.1,54.7,inactive
MLNR (motilin receptor),1,0.106,46.8,50.3,inactive
MLNR (motilin receptor),2,-0.183,75,66.1,inactive
MLNR (motilin receptor),3,-0.344,38.3,30.2,inactive
MLNR (motilin receptor),4,-0.136,102,92.8,inactive
LYNX1 (Ly6/neurotoxin 1),1,0.0849,85.1,90.3,inactive
LYNX1 (Ly6/neurotoxin 1),2,-0.313,115,92.5,inactive
LYNX1 (Ly6/neurotoxin 1),3,-0.898,64,34.3,inactive
LYNX1 (Ly6/neurotoxin 1),4,-0.284,101,83,inactive
LYNX1 (Ly6/neurotoxin 1),5,1.02,4.35,8.84,inactive
LYNX1 (Ly6/neurotoxin 1),6,-0.626,16.5,10.7,inactive
LYNX1 (Ly6/neurotoxin 1),7,0.477,60,83.5,inactive
LYNX1 (Ly6/neurotoxin 1),8,-0.298,69.8,56.8,inactive
LYNX1 (Ly6/neurotoxin 1),9,-0.151,94.4,85,inactive
IFNA8 (interferon alpha 8),1,0.249,109,130,inactive
IFNA8 (interferon alpha 8),2,-0.69,101,62.9,inactive
IFNA8 (interferon alpha 8),3,0.162,45,50.3,inactive
IFNA8 (interferon alpha 8),4,-0.256,101,84.8,inactive
DCLRE1C (DNA cross-link repair 1C),1,0.221,36.2,42.2,inactive
DCLRE1C (DNA cross-link repair 1C),2,-0.0746,95.7,90.8,inactive
DCLRE1C (DNA cross-link repair 1C),3,-0.321,54.4,43.6,inactive
DCLRE1C (DNA cross-link repair 1C),4,-0.313,91,73.3,inactive
CASP14 (caspase 14),1,0.882,15.6,28.8,inactive
CASP14 (caspase 14),2,-0.687,13.8,8.58,inactive
CASP14 (caspase 14),3,-0.179,92.3,81.5,inactive

9 entries from above, sorted by “viability without drug (% of control)”, ascending.
target,reagent,log2 vehicle/camptothecin viability,viability with camptothecin (% of control),viability without drug (% of control),Outcome
LYNX1 (Ly6/neurotoxin 1),5,1.02,4.35,8.84,inactive
LYNX1 (Ly6/neurotoxin 1),6,-0.626,16.5,10.7,inactive
LYNX1 (Ly6/neurotoxin 1),3,-0.898,64,34.3,inactive
LYNX1 (Ly6/neurotoxin 1),8,-0.298,69.8,56.8,inactive
LYNX1 (Ly6/neurotoxin 1),4,-0.284,101,83,inactive
LYNX1 (Ly6/neurotoxin 1),7,0.477,60,83.5,inactive
LYNX1 (Ly6/neurotoxin 1),9,-0.151,94.4,85,inactive
LYNX1 (Ly6/neurotoxin 1),2,-0.313,115,92.5,inactive
IFNA8 (interferon alpha 8),1,0.249,109,130,inactive

Continued.
target,reagent,log2 vehicle/camptothecin viability,viability with camptothecin (% of control),viability without drug (% of control),Outcome
ITGA2 (integrin subunit alpha 2),1,-0.109,130,120,inactive
ITGA2 (integrin subunit alpha 2),2,-0.342,75.5,59.5,inactive
ITGA2 (integrin subunit alpha 2),3,-0.528,91.4,63.4,inactive
ITGA2 (integrin subunit alpha 2),4,-0.0247,82.4,81,inactive
IL22RA1 (interleukin 22 receptor subunit alpha 1),1,-0.0737,112,106,inactive
IL22RA1 (interleukin 22 receptor subunit alpha 1),2,-0.0538,84.2,81.1,inactive
IL22RA1 (interleukin 22 receptor subunit alpha 1),3,-0.188,75.8,66.5,inactive
IL22RA1 (interleukin 22 receptor subunit alpha 1),4,-0.232,57.6,49,inactive
RGS14 (regulator of G protein signaling 14),1,-0.42,89.7,67.1,inactive
RGS14 (regulator of G protein signaling 14),2,0.0866,51.1,54.3,inactive
RGS14 (regulator of G protein signaling 14),3,-0.224,61.9,53,inactive
MLN (motilin),1,0.255,74.7,89.1,inactive
MLN (motilin),2,-0.226,69.4,59.3,inactive
MLN (motilin),3,0.261,75.8,90.8,inactive
MLN (motilin),4,-0.396,71.2,54.1,inactive
PEX7 (peroxisomal biogenesis factor 7),1,-0.244,95.6,80.7,inactive
PEX7 (peroxisomal biogenesis factor 7),2,-0.451,76.1,55.7,inactive
PEX7 (peroxisomal biogenesis factor 7),3,-0.133,97.3,88.7,inactive
PEX7 (peroxisomal biogenesis factor 7),4,-0.151,39.1,35.2,inactive
TIE1,1,-0.272,112,92.5,inactive
TIE1,2,0.989,47.3,93.8,inactive
TIE1,3,-0.248,102,85.6,inactive
TIE1,4,0.0825,48.2,51.1,inactive
HEY2,1,-0.164,75.3,67.3,inactive
HEY2,2,0.258,89,106,inactive
HEY2,3,-0.436,30.8,22.7,inactive
HEY2,4,0.116,95,103,inactive
"ERCC3 (ERCC excision repair 3, TFIIH core complex helicase subunit)",1,-0.42,11.9,8.88,inactive
"ERCC3 (ERCC excision repair 3, TFIIH core complex helicase subunit)",2,-0.373,75.3,58.1,inactive
"ERCC3 (ERCC excision repair 3, TFIIH core complex helicase subunit)",3,-0.47,72.8,52.5,inactive
"ERCC3 (ERCC excision repair 3, TFIIH core complex helicase subunit)",4,0.0359,60.6,62.2,inactive
